According to publication PMC12040169 (PLOS Biology, 2025):
This is one part of the list.

system: T1, CTL2-GFP (C. trachomatis L2/434/Bu, GFP-expressing); parameters: species or system HeLa; Intracellular C. trachomatis growth in HeLa cells, bulk GFP fluorescence relative to DMSO; conditions: bulk GFP, single well; 28.5 h, 10 µM; inhibitor
T1 construct: L2/434/Bu, GFP-expressing

Structure (SMILES) | % of control remaining
NC(=O)c1cc2c(OCCCN3CCN(C(c4ccccc4)c4ccccc4)CC3)cccc2[nH]1 [CBK016544] | 157.66%
COc1ccc(/C=N/Nc2nc(OC)nc(N3CCOCC3)n2)cc1 [CBK025751] | 109.565%
CS(=O)(=O)Nc1ncc(-c2ccco2)cc1C(=O)NCc1nc2ccccc2[nH]1 [CBK076468] | 119.232%
Cc1ccc(SCC(=O)Nc2cc([N+](=O)[O-])ccc2O)cc1 [CBK268655] | 72.0247%
COc1ccc([C@@]23CCCN(C(=O)Nc4ccc(SC(F)(F)F)cc4)C[C@@H]2N(C)CC3)cc1OC [CBK056681T] | 164.03%
Cc1cc2c(s1)c1cnn(CC(=O)NC(C)(C)C)c(=O)c1n2C [CBK284158] | 134.173%
COC(=O)c1ccsc1NS(=O)(=O)c1cc(Br)ccc1OC [CBK039065] | 104.38%
Cc1cc(C)nc(N/C(=N/C(=O)Cc2ccccc2)N2CCC(C(N)=O)CC2)n1 [CBK263889] | 103.325%
CC(C)(C)c1ccc(-c2cnc(N)c3ncccc23)cc1 [CBK067589] | 96.4282%
Cc1ccc(CNC(=O)OCCN2CCN(C)CC2)n1C [CBK200287] | 118.078%
Cc1ccc2sc(NC(=O)c3ccc(Cl)s3)nc2c1C [CBK291144] | 117.947%
COc1ccc(-c2ccccc2NC(=O)c2ccc(Cn3cnnn3)cc2)cc1 [CBK285866] | 131.408%
CC(C)CC1(C(CCN2C(=O)c3ccccc3C2=O)C(=O)NO)CCN(Cc2cccc(F)c2)C1=O (centres unmarked) [CBK013032] | 142.363%
COc1ccc(CCc2nc(C)cc(CN(C)C)c2O)cc1 [CBK278313C] | 114.169%
CCNc1nc2c(c(=O)[nH]c(=O)n2C)n1CCCc1ccccc1 [CBK269243] | 128.113%
COc1ccc(C(C)C)cc1-c1cnc(N)c(NCCCN2CCOCC2)n1 [CBK063625] | 130.498%
CN1CCN(c2cc(N3CCN(C)CC3)c([N+](=O)[O-])cc2C2Nc3ccc4ccccc4c3C3=C2C(=O)CC(C)(C)C3)CC1 (centres unmarked) [CBK262381] | 78.3154%
OCc1cccc(-c2nccnc2NCC(O)COc2ccccc2)c1 (centres unmarked) [CBK036842] | 170.605%
O=C(O)CCNS(=O)(=O)c1ccc(Br)cc1 [CBK261941] | 109.459%
O=C(O)CCCc1[nH]nc(O)c1Cc1c(Cl)cccc1Cl [CBK081137] | 73.3125%
O=C(Nc1cccc2ccccc12)C(c1ccccc1)N1CCOCC1 (centres unmarked) [CBK269388] | 92.6743%
CC(=O)Nc1cccc(-c2cc(Nc3ccc(N4CCN(Cc5ccccc5)CC4)cc3)ncn2)c1 [CBK037709] | 136.468%
O=C(O)CCC(=O)NNC(=O)c1ccc(O)cc1 [CBK261353] | 96.8552%
CCCCc1ccc(-c2cnc3ncccc3c2N)cc1 [CBK083683] | 98.4012%
CNC(=S)NCc1nc(-c2ccc(C)cc2)no1 [CBK288418] | 88.7812%
CC1(C)CC2(CC(C)(C(=O)CSc3nnc(-c4ccccc4Br)[nH]3)OC2=O)C(=O)O1 (centres unmarked) [CBK266713] | 149.858%
Cc1ccc(S(=O)(=O)Nc2ccc(C(=O)O)cc2)cc1 [CBK034060] | 120.556%

An excerpt from above in order of count of non-hydrogen atoms, high to low:
Structure (SMILES) | % of control remaining
COc1ccc(/C=N/Nc2nc(OC)nc(N3CCOCC3)n2)cc1 [CBK025751] | 109.565%
CCNc1nc2c(c(=O)[nH]c(=O)n2C)n1CCCc1ccccc1 [CBK269243] | 128.113%
CNC(=S)NCc1nc(-c2ccc(C)cc2)no1 [CBK288418] | 88.7812%

Carrying on.

Structure (SMILES) | % of control remaining
OC(COc1cccc(Oc2ccccc2)c1)CN1CCN(c2ccccc2F)CC1 (centres unmarked) [CBK267468] | 153.401%
CC(NC(=O)c1ncoc1-c1ccc2ccccc2c1)c1cccnc1 (centres unmarked) [CBK282441] | 112.993%
CCCCNC(=O)c1nnc(C(=O)Nc2cccc(Cl)c2)s1 [CBK294407] | 148.014%
Cc1c(C(=O)NC(Cc2cccs2)c2nccs2)cnn1C (centres unmarked) [CBK285053] | 132.446%
Cc1nn(C)c(C)c1CN1CCOC(c2nc(C(C)(C)C)cs2)C1 (centres unmarked) [CBK304170] | 127.597%
O=C(CCn1cccn1)NCC1CCCOC1 (centres unmarked) [CBK281474] | 106.802%
COc1cc(-c2nccnc2N2CCCN(C)CC2)cc(OC)c1OC [CBK037994] | 86.5342%
C[C@@H](c1ccccc1)n1c(=O)[nH]c2ncc(-c3cccc(/C=C/C(=O)O)c3)nc21 [CBK065040] | 98.0919%
COc1cc2c(cc1OC)C1c3ccccc3NC(c3ccc(C)cc3)N1CC2 (centres unmarked) [CBK286195] | 129.323%
COc1ncc(-c2cncc(N[C@H](C)c3ccccc3)n2)c(OC)n1 [CBK065267] | 177.522%
Cn1ccc(C(=O)N2CCC[C@H](C(=O)c3cccs3)C2)n1 [CBK282412] | 155.866%
c1cc(COc2ccc(N3CCNCC3)nn2)co1 [CBK022562] | 156.955%
O=C(Cn1cccc(C(=O)Nc2ccc(F)cc2)c1=O)NC1(c2ccccc2)CCCC1 [CBK286057] | 123.997%
CCCCCC(=O)Nc1ccc(C(=O)CSc2nnc(-c3ccco3)o2)cc1 [CBK295134] | 160.298%
CCCC(=O)Nc1c(F)cc(F)cc1OC1CCNCC1 [CBK045892T] | 175.941%
Cc1cc(C)c2c(N)c(C(=O)O)sc2n1 [CBK131868] | 118.974%
CCN1CCN(c2ccc([N+](=O)[O-])cc2S(=O)(=O)N2CCOCC2)CC1 [CBK264410] | 135.021%
Cc1nc(-c2cccc(OC(F)F)c2)n(C2CCN(C)CC2)n1 [CBK307382] | 142.715%
O=C(O)c1cc(-c2ccc(F)cc2)n[nH]1 [CBK267848] | 137.938%
COCC(C)NC(=O)Cn1c(C(F)F)cc2cccnc21 (centres unmarked) [CBK285010] | 98.4084%
O=C(c1cnc2ccccc2c1)N1CCC(F)CC1 [CBK200273] | 157.534%
Cc1cccc(CSc2nnc(C(C)NC(=O)c3ccccc3F)n2C)c1 (centres unmarked) [CBK269732] | 114.726%
O=C(c1cscn1)N1CCCC(n2cnc3cc(F)ccc32)C1 (centres unmarked) [CBK284477] | 150.969%
COc1ccc(NS(=O)(=O)c2cccs2)c(OC)c1 [CBK043915] | 85.8075%
COc1cc(Nc2cncc(-c3cccc(F)c3)n2)cc(OC)c1OC [CBK065272] | 182.928%
Cc1cc(-c2cn3cc(C(=O)N4CCCC4C)nc3c(=O)n2C)c(C)o1 (centres unmarked) [CBK307038] | 130.195%
O=S1(=O)c2cc(/N=C/c3c(O)ccc4ccccc34)ccc2-c2ccc(/N=C/c3c(O)ccc4ccccc34)cc21 [CBK261240] | 100%

Of the compounds above, 3 contain a nitro group on carbon:
Structure (SMILES) | % of control remaining
Cc1ccc(SCC(=O)Nc2cc([N+](=O)[O-])ccc2O)cc1 [CBK268655] | 72.0247%
CN1CCN(c2cc(N3CCN(C)CC3)c([N+](=O)[O-])cc2C2Nc3ccc4ccccc4c3C3=C2C(=O)CC(C)(C)C3)CC1 (centres unmarked) [CBK262381] | 78.3154%
CCN1CCN(c2ccc([N+](=O)[O-])cc2S(=O)(=O)N2CCOCC2)CC1 [CBK264410] | 135.021%

Next part.

Structure (SMILES) | % of control remaining
CC[C@H]1CN(C(=O)Nc2ccccc2)CC[C@H]1CC(=O)N(C)CC#N [CBK288777] | 130.919%
COCCN(Cc1cnn(C)c1)Cc1cc(O)c2cc(C)ccc2n1 [CBK306723] | 116.415%
Cc1ccc(C)c(S(=O)(=O)NCCCn2ccnc2)c1 [CBK262205] | 96.3549%
COc1ccc(C)cc1CC(=O)N(C)CCN1CCCCC1 [CBK282750] | 129.018%
CC(C)(C)c1ccc(C(=O)Nc2ccccc2C(=O)Nc2ccc(C(=O)O)cc2)cc1 [CBK268626] | 142.335%
CC(C)c1ccnc(C(C)Sc2nc(N)c(Br)c(Cl)n2)c1 (centres unmarked) [CBK016828] | 106.796%
COC(=O)c1c(NC(=O)c2cc(C)on2)sc(C(=O)Nc2ccc(Cl)cc2)c1C [CBK268116] | 129.766%
CC(C)N1CCC(C(=O)NC(=O)NCCOc2cccc3ccccc23)CC1 [CBK034807] | 100%
Cn1ncc(Cl)c1C1CCCCCN1S(=O)(=O)c1ccc2[nH]c(=O)[nH]c(=O)c2c1 (centres unmarked) [CBK286303] | 105.392%
Cc1cccc(N(CC(=O)NCc2ccco2)S(=O)(=O)c2ccccc2)c1 [CBK263571] | 86.706%
COCCc1ccccc1NC1CCN(c2nccs2)CC1 [CBK305476] | 129.794%
NCC(NC(=O)c1cnc(-c2ccncc2)s1)C1CCCCC1 (centres unmarked) [CBK306502C] | 71.935%
Cc1ccsc1-c1nc2cnccn2c1NC1CCCC1 [CBK283524] | 118.442%
Cc1cnc2[nH]c(C3CCCN(C(=O)c4cccnc4C)C3)cc2c1 (centres unmarked) [CBK285169] | 131.737%
O=C(O)Cn1nnnc1CN1CCc2ccccc2C1 [CBK287097] | 108.932%
CCc1cc(C(=O)NC(c2ccncc2)c2cccs2)n(C)n1 (centres unmarked) [CBK281482] | 105.88%
COc1nccnc1-c1cnn(Cc2ccccc2)c1 [CBK107090] | 106.514%
COc1nccc(N2CCC3(CC(=O)NC3=O)C2)c1C#N (centres unmarked) [CBK307246] | 107.923%
CCN(CC)CCC(C(=O)c1ccccc1)S(C)(=O)=O (centres unmarked) [CBK022802] | 153.96%
O/N=C(\Cn1cncn1)c1ccc(Cl)cc1Cl [CBK261085] | 108.267%
O=C(COc1ccc(NS(=O)(=O)c2ccc3oc4cc([N+](=O)[O-])ccc4c3c2)cc1)N1CCOCC1 [CBK268252] | 98.025%
Cc1ccsc1C(=O)N1CCN(Cc2cc(=O)n3ccccc3n2)CC1 [CBK305044] | 104.66%
CC1(C)CC(NC(=O)C(=O)NC2CC(C)(C)NC(C)(C)C2)CC(C)(C)N1 [CBK261951] | 100%
CC(=O)Nc1ccc(/C=N/c2ccccc2)cc1 [CBK012258] | 101.725%
Cc1ccc([N+](=O)[O-])c(OCCNCCN(C)C)c1 [CBK267822C] | 96.4328%
CC1(C)NC(=O)N(CC(O)CN(C2CCCCC2)C2CCCCC2)C1=O (centres unmarked) [CBK264578] | 115.001%
